Paper PMC3932521
These are yes or no findings as the source states them, for the method shown.

By UniProt entry, the sequences of proteins in these tests, tags left out. Where a name states a change or a piece, a line headed by the entry shows the natural chain unless it says otherwise.
UniProt A0A3Q2ICL5: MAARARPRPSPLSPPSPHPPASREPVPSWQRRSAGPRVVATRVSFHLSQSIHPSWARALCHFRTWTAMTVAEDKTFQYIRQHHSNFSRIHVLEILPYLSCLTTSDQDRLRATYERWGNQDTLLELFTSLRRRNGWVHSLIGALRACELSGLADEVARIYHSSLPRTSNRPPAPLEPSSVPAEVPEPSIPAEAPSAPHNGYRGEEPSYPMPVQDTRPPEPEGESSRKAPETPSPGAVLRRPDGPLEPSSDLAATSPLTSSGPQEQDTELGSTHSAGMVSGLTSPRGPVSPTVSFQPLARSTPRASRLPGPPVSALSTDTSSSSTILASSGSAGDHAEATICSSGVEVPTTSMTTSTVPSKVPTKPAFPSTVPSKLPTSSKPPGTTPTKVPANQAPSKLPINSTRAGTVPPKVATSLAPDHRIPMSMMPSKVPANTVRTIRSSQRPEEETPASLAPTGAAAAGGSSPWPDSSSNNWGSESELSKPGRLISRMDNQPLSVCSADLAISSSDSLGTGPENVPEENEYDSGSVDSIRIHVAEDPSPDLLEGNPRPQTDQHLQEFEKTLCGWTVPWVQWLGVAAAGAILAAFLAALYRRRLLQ

Target: horse MAVS CARD E26R (horse)
Experiment: SEC; gel filtration of CARD mutants purified from E. coli; a homogenous monomeric peak counts as soluble; both purified

horse MAVS CARD E26R (from UniProt A0A3Q2ICL5 68-161) (domain or fragment)
binding: no binding
